Results: the supplement of paper PMC11150407
Values joined by “and” are separate entries in the source; they are usually repeats but may differ in a detail not shown here. Equal entries are not always repeated. Structures can show the parent of a compound that is named as a salt. Hit rate of the full screen: of about 2,100 compounds, about 180 (8.6%) showed an effect of 50% or more. This is one part of the list.

The molecules below were run on MOLM1 and UCSD/AML1 (averaged) (assay: cell viability relative to DMSO control (POC); higher = less growth inhibition). Conditions: 1 µM; 72 h.
Description: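 Primary viability screen in the 3q26 EVI1-high AML cell lines MOLM1 and UCSD/AML1 (1.5e3 cells/well, 384-well), compounds at 1 uM for 72 h. ATP CellTiter-Glo read-out given as percent of viable cells over DMSO control (POC), averaged over duplicates. DMSO was the negative control and 5 uM etoposide the positive control. This mapping covers the MicroSource Spectrum and Selleck anticancer libraries (drug names).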

SMILES	cell viability
CC(C)(C#N)c1cc(Cn2cncn2)cc(C(C)(C)C#N)c1 [Anastrozole]	104%
C[C@H]1[C@H](C)CC[C@]2(CO)CC[C@]3(C)C(=CC[C@@H]4[C@@]5(C)CC[C@H](O)C(C)(C)[C@@H]5CC[C@]43C)[C@H]12	110%
Oc1c(I)cc(Cl)c2cccnc12	88.5%
O=C(O)c1cn(C2CC2)c2cc(N3CCNCC3)c(F)cc2c1=O	95.6%
COc1cc(OC2CCN(C)CC2)ccc1Nc1ncc2c(n1)n(C1CCCC1)c(=O)n2C	70.8%
Cc1cc(C(C)(C)C)c(O)c(C(C)(C)C)c1	96.3%
COc1cc(C(=O)NCc2ccc(OCCN(C)C)cc2)cc(OC)c1OC	97.1%
COc1ccc2c(c1)OC/C(=C/c1ccc(OC)c(OC)c1)C2=O	108%
C[C@@H]1CC[C@H]2[C@](C)(CO)[C@@H](O)CC[C@]2(C)[C@@]12CC[C@@](CO)(CCO)O2	89.3%
C1CCC(C(CC2CCCCN2)C2CCCCC2)CC1 (centres undefined)	92.1%
CC(C)c1c(O)c(-c2cc3c(c(C(C)C)c2O)CCC2C(C)(C)CCC[C@]32C)cc2c1CCC1C(C)(C)CCC[C@]21C (some centres undefined)	87.3%
CC(=O)[C@@]1(O)CC[C@H]2[C@@H]3C[C@H](C)C4=CC(=O)C=C[C@]4(C)[C@@]3(F)[C@@H](O)C[C@@]21C	75.3%
CCc1nc(N)nc(N)c1-c1ccc(Cl)cc1	101%
C[C@H]1c2cccc(O)c2C(=O)C2=C(O)[C@]3(O)C(=O)C(C(N)=O)=C(O)[C@@H](N(C)C)[C@@H]3[C@@H](O)[C@@H]21	98.7%
C=CC(C1=CC(=O)C(OC)=CC1=O)c1ccccc1 (centres undefined)	79.2%
Clc1ccc(C(Cn2ccnc2)OCc2ccsc2Cl)c(Cl)c1 (centres undefined)	79.4%
C[C@](N)(Cc1ccc(O)c(O)c1)C(=O)O	98%
Cc1ccc(NC(=O)c2ccc(CN3CCN(C)CC3)cc2)cc1Nc1nccc(-c2cccnc2)n1 [Imatinib Mesylate]	37.8%
COc1c(CC(=O)c2cc3c(cc2O)OC(C)(C)C(O)C3)ccc2c1C=CC(C)(C)O2 (centres undefined)	98%
CN[C@@H]1[C@H](O)[C@H](NC)[C@H]2O[C@@]3(O)C(=O)C[C@@H](C)O[C@H]3O[C@@H]2[C@H]1O	99.7%
NS(=O)(=O)c1cc2c(cc1Cl)NC(C(Cl)Cl)NS2(=O)=O (centres undefined)	106%
CN[C@H](CC(=O)O)C(=O)O	112%
Cc1onc(-c2ccccc2Cl)c1C(=O)N[C@@H]1C(=O)N2[C@@H]1SC(C)(C)[C@@H]2C(=O)O	95.3%

SMILES	cell viability
CC1(C)O[C@H]2CC(=O)OC[C@]23[C@H]2CC[C@@]4(C)[C@H](c5ccoc5)OC(=O)[C@H]5O[C@]54[C@]2(C)C(=O)C[C@@H]13	92.5%
CC12CCC(CC1=O)C2(C)C (centres undefined)	114%
C[C@@H]1NC(=O)[C@@H](N)CNC(=O)[C@H](C2CCNC(=N)N2)NC(=O)/C(=C/NC(N)=O)NC(=O)[C@H](CNC(=O)CC(N)CCCN)NC1=O.N=C1NCC[C@H]([C@@H]2NC(=O)/C(=C/NC(N)=O)NC(=O)[C@H](CNC(=O)C[C@@H](N)CCCN)NC(=O)[C@H](CO)NC(=O)[C@@H](N)CNC2=O)N1	114%
C=C[C@@](C)(O)CCC1C(=C)CCC2[C@@](C)(CO)CCC[C@]12C (some centres undefined)	112%
CN[C@@H]1[C@@H](O[C@H]2O[C@H](CO)[C@@H](N)[C@H](O)[C@H]2O)OC2C[C@@H](N)[C@@H](O[C@H]3[C@H](O)[C@@H](O)[C@H](N)C[C@@H]3N)OC2[C@@H]1O (some centres undefined)	78.1%
CC(=O)Oc1cc(OC(C)=O)c2c(c1)O[C@H](c1ccc(OC(C)=O)c(OC(C)=O)c1)[C@@H](OC(C)=O)C2	96.7%
CCCCCCCCCCCCCCCCCCCCCCO	101%
CC(C)C[C@@H](C(=O)N[C@H](C(=O)OC1CCCC1)c1ccccc1)[C@H](O)C(=O)NO [Tosedostat (CHR2797)]	77.5%
NCCCC(=O)O [gamma-AMINOBUTYRIC ACID]	109%
CN(C)C/C=C(/c1ccc(Br)cc1)c1cccnc1	95.9%
CC(C)(CO)C(O)C(=O)NCCCO (centres undefined)	90%
CCOc1ccc2ccccc2c1C(=O)N[C@@H]1C(=O)N2[C@@H]1SC(C)(C)[C@@H]2C(=O)O	71.7%
CCN(CC)CCNC(=O)c1cc(Cl)c(N)cc1OC	96.3%
Cn1cnc2c1c(=O)[nH]c(=O)n2C	97.7%
O=C(O)CCNC(=O)c1ccccc1	116%
CO[C@H]1/C=C\C=C(/C)C(=O)NC2=CC(=O)C(NCCN(C)C)=C(C[C@@H](C)C[C@H](OC)[C@H](O)[C@@H](C)/C=C(\C)[C@@H]1OC(N)=O)C2=O [17-DMAG HCl (Alvespimycin)]	2.31%
CCC[C@@H]1C[C@@H](C(=O)N[C@@H]([C@H]2O[C@H](SC)[C@H](O)[C@@H](O)[C@H]2O)[C@H](C)Cl)N(C)C1	88.6%
C[n+]1c2cc(N)ccc2cc2ccc(N)cc21	81.6%
CC(C)[N+](C)(CCOC(=O)C1c2ccccc2Oc2ccccc21)C(C)C	96.2%
CN1CCC[C@@H]1Cc1c[nH]c2ccc(CCS(=O)(=O)c3ccccc3)cc12	85.7%
CN(C)CCC=C1c2ccccc2COc2ccccc21	107%
OCc1cccnc1	103%
O=Cc1ccccc1O[C@@H]1O[C@H](CO)[C@@H](O)[C@H](O)[C@H]1O	102%

3 entries from above, set out differently:

| SMILES | cell viability |
| --- | --- |
| C[C@H]1c2cccc(O)c2C(=O)C2=C(O)[C@]3(O)C(=O)C(C(N)=O)=C(O)[C@@H](N(C)C)[C@@H]3[C@@H](O)[C@@H]21 | 98.7% |
| C=CC(C1=CC(=O)C(OC)=CC1=O)c1ccccc1 (centres undefined) | 79.2% |
| Clc1ccc(C(Cn2ccnc2)OCc2ccsc2Cl)c(Cl)c1 (centres undefined) | 79.4% |

More entries

SMILES	cell viability
C[S+]([O-])c1ccc(-c2nc(-c3ccc(F)cc3)c(-c3ccncc3)[nH]2)cc1 (centres undefined)	106%
CC1=CC(=O)C(C(C)C)=CC1=O	97.2%
O=C(O)c1ccccc1OP(=O)(O)O	102%
C/C=C(/C(=C/C)c1ccc(O)cc1)c1ccc(O)cc1	96.1%
Cc1ncc([N+](=O)[O-])n1CC(C)O (centres undefined)	110%
OCCn1cc(-c2cnc3nnn(Cc4ccc5ncccc5c4)c3n2)cn1	26.7%
CC1=C(/C=C/C(C)=C/C=C/C(C)=C/CO)C(C)(C)CCC1	101%
Nc1cc(N2CCCCC2)nc(N)[n+]1[O-]	86.8%
C=C[C@H]1CN2CC[C@H]1C[C@H]2[C@H](O)c1ccnc2ccc(OC)cc12	107%
CC1(C)S[C@@H]2[C@H](NC(=O)[C@H](N)c3ccccc3)C(=O)N2[C@H]1C(=O)O	101%
CC1/C(=N/O)C[C@@H]2C[C@H]1C2(C)C (some centres undefined)	102%
O=c1n(CCCN2CCN(c3cccc(Cl)c3)CC2)nc2ccccn12	106%
COc1ccc([C@@H](C)C(=O)c2ccc(O)cc2O)cc1	112%
C#Cc1cccc(Nc2ncnc3cc(OCCOC)c(OCCO)cc23)c1 [OSI-420 (Desmethyl Erlotinib)]	42.9%
NC(=O)c1cnccn1	104%
Cc1nc2ccccn2c(=O)c1CCN1CCC(C(=O)c2ccc(F)cc2)CC1	112%
Nc1ccc(-c2ccc3ncc4ccc(=O)n(-c5cccc(C(F)(F)F)c5)c4c3c2)cn1 [Torin 2]	10%
O[C@H]1[C@H](O)[C@@H](O)[C@H](O)[C@@H](O)[C@H]1O	115%
C/C=C/c1ccc(OC)cc1	93.8%
C=C(C)[C@@H]1CC[C@]2(CO)CC[C@]3(C)[C@H](CC[C@@H]4[C@@]5(C)CC[C@H](O)C(C)(C)[C@@H]5CC[C@]43C)[C@@H]12	89.1%
COc1cccc2c1C(=O)c1c(O)c3c(c(O)c1C2=O)C[C@@](O)(C(=O)CO)C[C@@H]3O[C@H]1C[C@H](N)[C@@H](O)[C@H](C)O1 [Epirubicin Hydrochloride]	1.66%
COc1cccc2c1C(=O)c1c(O)c3c(c(O)c1C2=O)C[C@@](O)(C(=O)CO)C[C@@H]3O[C@H]1C[C@H](N)[C@@H](O)[C@H](C)O1	5.86%
COc1ccc2c(c1)CC[C@@H]1[C@@H]2CC[C@]2(C)[C@@H](O)CC[C@@H]12	96.8%

SMILES	cell viability
CC(=O)O[C@H]1C(=O)[C@@]2(C)[C@H]([C@H](OC(=O)c3ccccc3)[C@]3(O)C[C@H](OC(=O)[C@H](O)[C@@H](NC(=O)c4ccccc4)c4ccccc4)C(C)=C1C3(C)C)[C@]1(OC(C)=O)CO[C@@H]1C[C@@H]2O	11.7%
CC(=O)O[C@H]1C(=O)[C@@]2(C)[C@H]([C@H](OC(=O)c3ccccc3)[C@]3(O)C[C@H](OC(=O)[C@H](O)[C@@H](NC(=O)c4ccccc4)c4ccccc4)C(C)=C1C3(C)C)[C@]1(OC(C)=O)CO[C@@H]1C[C@@H]2O [Paclitaxel (Taxol)]	12.3%
CC(N)CCCC(C)(C)O (centres undefined)	117%
CN1CCCN=C1/C=C/c1cccc(O)c1	94.1%
NC(=O)c1ccc(-c2nc(-c3ccccn3)c(-c3ccc4c(c3)OCO4)[nH]2)cc1	119%
CC(=O)N(c1onc(C)c1C)S(=O)(=O)c1ccc(N)cc1	75.4%
Cc1cc(O)cc(C)c1Cl	98.1%
C[C@@H](O[C@H]1OCCN(Cc2n[nH]c(=O)[nH]2)[C@H]1c1ccc(F)cc1)c1cc(C(F)(F)F)cc(C(F)(F)F)c1 [Aprepitant (MK-0869)]	85.8%
Oc1cccc(O)c1	101%
C=C1CCC(C2CC(=O)OC2=O)C(=O)CCC2C1CC2(C)C (centres undefined)	104%
COC(=O)c1c(C)cc(OC)cc1O	94.6%
CCn1c(-c2nonc2N)nc2c(C#CC(C)(C)O)ncc(OC[C@H]3CCCNC3)c21	54%
NC(=O)CC[C@H](N)C(=O)O	102% and 104%
O=C1c2ccccc2C(=O)C1c1ccc(Br)cc1	99.1%
CC=CC1=C(C(=O)O)N2C(=O)[C@@H](NC(=O)[C@H](N)c3ccc(O)cc3)[C@H]2SC1	103%
Cc1cc2c(s1)Nc1ccccc1N=C2N1CCN(C)CC1	86.1%
CC(C)OC(=O)C(C)(C)Oc1ccc(C(=O)c2ccc(Cl)cc2)cc1	100%
c1coc(CNc2ncnc3[nH]cnc23)c1	107%
CCOc1ccc2nc(S(N)(=O)=O)sc2c1	96.8%
C/C(=C\C(=O)OCCCCCCCCC(=O)O)C[C@@H]1OC[C@H](C[C@@H]2O[C@H]2[C@@H](C)[C@H](C)O)[C@@H](O)[C@H]1O	81.8%
